Values from PubChem BioAssay AID1159578 (Peter MacCallum Cancer Centre, 2015).

Test: 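siRNA pools altering how lymphatic endothelial cells close a scratch wound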 (primary screen)
System: human lymphatic endothelial cells
Reagent: siRNA pool against human genes, 40 nM
Time to read-out: 48 h after transfection
Detection: 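Cells stained with dye and imaged after a scratch; covered wound area and nuclei counted, duplicates averaged, migration set against mock wells and turned into a robust z-score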
Direction: migration robust z-score: higher = faster migration into the scratch; nuclei per well: higher = more cells in the well
Call rule: 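Migration changed when robust z exceeds 2 or falls below -2 and mean nuclei number is at least 3300; otherwise not called changed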
Meaning of the calls: active = migration changed; inactive = no migration change, or too few cells
Here is one part, drawn at random, of about 18,000 reagents. Of all reagents, about 1,030 (5.7%) are marked active. 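Inactive calls also include pools with fewer than 3300 nuclei, whose migration was not assessed.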 Raw values are not corrected between plates. Further read-outs or replicates are left out here.

Target gene | migration robust z-score | nuclei per well, duplicate mean | Call
ANTXR2 (ANTXR cell adhesion molecule 2) | 0.82 | 4706 | inactive
CT47A9 (cancer/testis antigen family 47 member A9) | -1.03 | 5572 | inactive
SKI (SKI proto-oncogene) | 0.41 | 6206 | inactive
GSTA4 (glutathione S-transferase alpha 4) | -0.18 | 5556 | inactive
CDPF1 (cysteine rich DPF motif domain containing 1) | 0.71 | 4972 | inactive
CRP (C-reactive protein) | 0.37 | 6158 | inactive
TBC1D1 (TBC1 domain family member 1) | -0.45 | 5616 | inactive
FZD7 (frizzled class receptor 7) | 1.06 | 5027 | inactive
KY (kyphoscoliosis peptidase) | -0.86 | 5200 | inactive
ATP6V0E1 (ATPase H+ transporting V0 subunit e1) | -0.62 | 4202 | inactive
BBS5 (Bardet-Biedl syndrome 5) | 0.03 | 3715 | inactive
CDKN1C (cyclin dependent kinase inhibitor 1C) | -2.05 | 3860 | active
DAXX (death domain associated protein) | 0.16 | 6344 | inactive
PRKCE (protein kinase C epsilon) | -2.02 | 3676 | active
LDB2 (LIM domain binding 2) | -0.72 | 6446 | inactive
CYSTM1 (cysteine rich transmembrane module containing 1) | -1.54 | 3650 | inactive
HOXB9 (homeobox B9) | -0.81 | 5702 | inactive
TSPO2 (translocator protein 2) | -0.48 | 5633 | inactive
VPS35L (VPS35 endosomal protein sorting factor like) | -0.5 | 5826 | inactive
LINC01565 (long independently transcribed non-coding RNA 1565) | 1.54 | 6544 | inactive
PRKD1 (protein kinase D1) | -0.55 | 5490 | inactive
HVCN1 (hydrogen voltage gated channel 1) | 0.46 | 5552 | inactive
HRH4 (histamine receptor H4) | 0.7 | 6210 | inactive
CACNA1A (calcium voltage-gated channel subunit alpha1 A) | -1.19 | 5302 | inactive
PI4KB (phosphatidylinositol 4-kinase beta) | -2.93 | 4252 | active
ANGPTL5 (angiopoietin like 5) | 1.5 | 5131 | inactive
FAM167A (family with sequence similarity 167 member A) | -0.15 | 5401 | inactive
ICA1L (islet cell autoantigen 1 like) | -0.15 | 6557 | inactive
SPMIP10 (sperm microtubule inner protein 10) | -0.98 | 5668 | inactive
RNASE2 (ribonuclease A family member 2) | 1.32 | 4982 | inactive
DENND5B (DENN domain containing 5B) | 0.31 | 6806 | inactive
HHIP (hedgehog interacting protein) | -0.08 | 6055 | inactive
GORAB (golgin, RAB6 interacting) | -0.3 | 5184 | inactive
DLG4 (discs large MAGUK scaffold protein 4) | -4.72 | 3036 | inactive
TRMT5 (tRNA methyltransferase 5) | 0.26 | 5696 | inactive
ZNF689 (zinc finger protein 689) | -0.16 | 3922 | inactive
PIMREG (PICALM interacting mitotic regulator) | 0.14 | 5788 | inactive
ANGPT4 (angiopoietin 4) | -1.06 | 4587 | inactive
OR5AN1 (olfactory receptor family 5 subfamily AN member 1) | 0.6 | 4744 | inactive
MYL10 (myosin light chain 10) | -0.42 | 4925 | inactive
NDST2 (N-deacetylase and N-sulfotransferase 2) | 0.65 | 6458 | inactive
PRKAA1 (protein kinase AMP-activated catalytic subunit alpha 1) | 0.7 | 5658 | inactive
ZNF713 (zinc finger protein 713) | 0.4 | 5524 | inactive
PADI3 (peptidyl arginine deiminase 3) | 0.7 | 5446 | inactive
ISCA2 (iron-sulfur cluster assembly 2) | 0.76 | 5812 | inactive
HYAL2 (hyaluronidase 2) | -1.19 | 5048 | inactive
NLRP9 (NLR family pyrin domain containing 9) | -0.46 | 3512 | inactive
SLC4A9 | 1.14 | 5078 | inactive
CDC25B (cell division cycle 25B) | -0.8 | 4456 | inactive
AGO3 (argonaute RISC catalytic component 3) | 0.36 | 5892 | inactive
GMDS (GDP-mannose 4,6-dehydratase) | 0.26 | 5107 | inactive
DPM3 (dolichyl-phosphate mannosyltransferase subunit 3, regulatory) | -0.54 | 4885 | inactive
ADGRV1 (adhesion G protein-coupled receptor V1) | 0.24 | 6868 | inactive
CFAP57 (cilia and flagella associated protein 57) | 0.5 | 6366 | inactive
POPDC1 (popeye domain cAMP effector 1) | 0.42 | 7233 | inactive
TIPE3 (TNF alpha induced protein 8 like 3) | 1.17 | 6004 | inactive
EPC2 (enhancer of polycomb 2) | -1.07 | 5616 | inactive
